In paper PMC2682205, “Cdc7p-Dbf4p Regulates Mitotic Exit by Inhibiting Polo Kinase” (PLoS Genetics, 2009):
These are yes or no findings as the source states them, for the method shown. For some assays here: Binding can be weak; no strength is given. Tags and fused reporters may be left off the sequences shown.

Experiments:
[1] = biological target: T1, GBD fusion to Dbf4p residues 67–109 (budding yeast (S. cerevisiae)) (UniProt P32325); assay: two-hybrid; GBD-DBF4 baits and GAD-CDC5 preys co-transformed, 10-fold serial dilutions spotted on SCM–Trp–Leu–His with 2 mM 3AT, 30°C, 2 to 3 days (Figure 1A, C)
T1 sequence: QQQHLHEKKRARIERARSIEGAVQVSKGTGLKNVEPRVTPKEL

[2] = biological target: T2, GBD fusion to the Dbf4p BRCT-like region alone (residues 110–227) (budding yeast (S. cerevisiae)) (UniProt P32325); assay: as above
T2 sequence: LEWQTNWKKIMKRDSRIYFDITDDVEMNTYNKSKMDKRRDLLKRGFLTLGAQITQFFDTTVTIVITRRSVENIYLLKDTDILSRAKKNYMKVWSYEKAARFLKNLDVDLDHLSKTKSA

[3] = biological target: T3, Gal4 DNA binding domain (GBD) fusion to Dbf4p_(67–227) (budding yeast (S. cerevisiae)) (UniProt P32325); assay: as above
T3 sequence: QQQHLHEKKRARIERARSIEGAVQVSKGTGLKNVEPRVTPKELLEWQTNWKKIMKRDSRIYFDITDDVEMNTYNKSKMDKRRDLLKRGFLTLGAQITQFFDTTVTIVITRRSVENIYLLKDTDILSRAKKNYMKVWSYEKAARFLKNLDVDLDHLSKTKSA

[4] = biological target: T4, GBD fusion to full length Dbf4p (budding yeast (S. cerevisiae)) (UniProt P32325); assay: two-hybrid; GBD-DBF4 baits (full-length context) and GAD-CDC5 prey, 10-fold serial dilutions spotted on SCM–Trp–Leu–His with 0.5 mM 3AT, 30°C, 2 to 3 days (Figure 1B)
T4 sequence: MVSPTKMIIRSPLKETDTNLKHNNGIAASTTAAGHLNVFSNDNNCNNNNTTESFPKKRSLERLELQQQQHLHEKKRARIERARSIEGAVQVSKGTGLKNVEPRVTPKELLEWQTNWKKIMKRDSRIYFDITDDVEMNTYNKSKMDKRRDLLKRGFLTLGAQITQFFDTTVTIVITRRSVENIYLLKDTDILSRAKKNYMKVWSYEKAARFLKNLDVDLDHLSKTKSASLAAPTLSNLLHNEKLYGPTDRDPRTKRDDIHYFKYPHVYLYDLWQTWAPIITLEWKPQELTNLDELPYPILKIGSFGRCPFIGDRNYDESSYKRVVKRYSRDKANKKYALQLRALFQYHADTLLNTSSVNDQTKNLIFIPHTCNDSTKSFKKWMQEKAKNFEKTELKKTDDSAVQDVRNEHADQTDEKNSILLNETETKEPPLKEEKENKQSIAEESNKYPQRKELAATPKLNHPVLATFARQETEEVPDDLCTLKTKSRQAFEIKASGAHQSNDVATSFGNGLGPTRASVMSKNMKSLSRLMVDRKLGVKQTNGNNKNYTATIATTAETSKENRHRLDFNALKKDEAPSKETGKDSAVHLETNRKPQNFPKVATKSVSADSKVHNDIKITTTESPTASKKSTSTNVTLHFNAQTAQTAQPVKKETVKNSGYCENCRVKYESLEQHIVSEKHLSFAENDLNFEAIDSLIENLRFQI

[5] = biological target: T3, Gal4 DNA binding domain (GBD) fusion to Dbf4p_(67–227) (budding yeast (S. cerevisiae)); assay: two-hybrid; screen of a S. cerevisiae two-hybrid library with pCG60 (GBD-Dbf4p 67-227) in PJ69-4a; medium without Trp, Leu, His with 2 mM 3-aminotriazole, 30°C; HIS3 and ADE2 reporters, confirmed by retransformation

- binding [1]: binds
- binding [2]: no binding
- binding [3]: binds
- binding [4]: binds
- binding [5]: binds
Substance: GAL4 activation domain fusion to the polo-box domain (PBD) of Cdc5p (S. cerevisiae) (domain or fragment)
